Results are given in words; binding and its absence hold for the method and conditions named. Binding can be weak; no strength is given.
What was measured:
[1] = target: HLA-DR counterpart on a chimpanzee specimen (chimpanzee); assay: flow cytometry on cells, as in Example 10
[2] = target: HLA-DR counterpart on crab-eating monkey specimens (crab-eating monkey); assay: flow cytometry on cells, as in Example 10

binding [1]: binds
binding [2]: binds
B1: HD8 (antibody, IgG2, V domains shown)
VH: QVQLQHSGPGLVKPSQTLSLTCAISGDSVSSNSASWNWIRQSPSRGLEWLGRTYYRSKWYNDYAVSVKSRIVINPDTSKNQFSLQLNSVTPEDTAVYYCARENFYGSETCHKKYYCYGMDVWGQGTTVTVSS
VL: AIQLTQSPSSLSASVGDRVTITCRASQGISSALAWYQQKPGKAPKLLIYDASSLESGVPSRFSGSGSGTDFTLTISSLQPEDFATYYCQQFNSFPLTFGGGTKVEIK

From patent publication US20040091974A1
